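Purified human glucocerebrosidase was tested for inhibition by reading red fluorescence from a resorufin glucoside substrate after 20 minutes at room temperature. Each compound was run as a titration series spanning about 0.6 nM up to 50 µM final. The number is the fitted half-maximal concentration (AC50); a lower value means a more potent inhibitor. The record treats a '>' qualifier as no measurable activity (inactive); no explicit numeric cut-off is stated.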

By UniProt entry, the sequences of proteins in these tests, tags left out.
UniProt P04062, whole entry, target on record: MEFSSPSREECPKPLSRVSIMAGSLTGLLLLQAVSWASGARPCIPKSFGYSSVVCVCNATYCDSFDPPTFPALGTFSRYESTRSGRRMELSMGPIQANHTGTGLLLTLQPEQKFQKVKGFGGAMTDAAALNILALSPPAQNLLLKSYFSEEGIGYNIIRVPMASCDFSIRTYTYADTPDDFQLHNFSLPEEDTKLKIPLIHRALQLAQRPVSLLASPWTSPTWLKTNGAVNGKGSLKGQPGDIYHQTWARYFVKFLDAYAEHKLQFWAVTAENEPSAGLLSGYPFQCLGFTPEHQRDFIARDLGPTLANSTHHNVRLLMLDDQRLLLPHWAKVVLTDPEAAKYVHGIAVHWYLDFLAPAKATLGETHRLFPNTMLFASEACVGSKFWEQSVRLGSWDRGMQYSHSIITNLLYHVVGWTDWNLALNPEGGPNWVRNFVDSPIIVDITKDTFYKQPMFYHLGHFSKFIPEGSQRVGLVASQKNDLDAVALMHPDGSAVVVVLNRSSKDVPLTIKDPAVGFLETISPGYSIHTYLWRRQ

Values are in µM. All entries here are filed as inactive. These are entries filed as inactive; the hits of the assay are not listed here.

COc1ccc(CNC(=O)C2CCNCC2)cc1 read fitted potency >76.9 µM.
CCOC(=O)C1=C(C)NC(=O)NC1c1ccc2c(c1)OCCO2 (stereo not drawn) read fitted potency >76.9 µM.
Cc1ccc(-c2c(C#N)c(N)nc3c2CCCCC3)o1 read fitted potency >76.9 µM.
CCOc1cc2[nH]c(=O)n(CCCCC(=O)N3CCCCCC3)c(=O)c2cc1OCC read fitted potency >76.9 µM.
Cc1ccc(N2C(=O)CSC23C(=O)Nc2ccccc23)cc1 (stereo not drawn) read fitted potency >76.9 µM.
CCCn1nnnc1SCC(=O)NCc1ccc2c(c1)OCO2 read fitted potency >76.9 µM.
COc1cccc(C2=NOC(C(=O)Nc3cccc(C(C)=O)c3)C2)c1 (stereo not drawn) read fitted potency >76.9 µM.
CCc1ccc(Nc2nc(N)nc(CSc3nnnn3-c3ccccc3)n2)cc1 read fitted potency >76.9 µM.
CCOc1ncccc1C(=O)OCC(=O)N1CCN(S(=O)(=O)c2ccc(Cl)cc2)CC1 read fitted potency >76.9 µM.
CC(NC(=O)C(NC(=O)C1CCCN1C(=O)OC(C)(C)C)C(C)C)C(N)=O (stereo not drawn) read fitted potency >76.9 µM.
COc1ccc(S(=O)(=O)Nc2ccccc2OC)cc1C read fitted potency >76.9 µM.
Cc1cc(C)n(-c2ccc(C(=O)Nc3nnc(C4CC4)s3)cc2)n1 read fitted potency >76.9 µM.
COC(=O)COc1ccc(S(=O)(=O)Nc2ccccc2C(=O)OC)cc1 read fitted potency >76.9 µM.
CC(=O)Nc1cccc(NC(=O)CCn2c(=O)sc3ccccc32)c1 read fitted potency >76.9 µM.
CCOC(=O)c1[nH]c(C)c(C(=O)N2CCN(C(=O)c3ccco3)CC2)c1C read fitted potency >76.9 µM.
COc1ccccc1-n1c(SCC(=O)N2CCCCC2)nc2cccnc21 read fitted potency >76.9 µM.
OCCN(Cc1ccccc1)CC1CCCCC1 read fitted potency >76.9 µM.
CCOC(=O)N1CCC(N2Cc3cccc(C(=O)NCc4ccc5c(c4)OCO5)c3C2=O)CC1 read fitted potency >76.9 µM.
O=C(CN1CCN(S(=O)(=O)c2ccc(F)cc2)CC1)Nc1ccc2c(c1)OCCO2 read fitted potency >76.9 µM.
CCOc1cc(CNC(=O)CN2C(=O)c3ccccc3S2(=O)=O)ccc1OC read fitted potency >76.9 µM.
CN(C)S(=O)(=O)c1ccc2c(c1)C(CC(=O)O)NC2=O (stereo not drawn) read fitted potency >76.9 µM.
Cc1csc(C(C#N)C(=O)c2ccncc2)n1 (stereo not drawn) read fitted potency >76.9 µM.
CCOc1ccc(OCC)c(NC(=O)C2CCCN(S(=O)(=O)c3c(C)noc3C)C2)c1 (stereo not drawn) read fitted potency >76.9 µM.
Cc1nnc2ccc(N3CCC4(CC3)OCCO4)nn12 read fitted potency >76.9 µM.
O=S(=O)(c1cccc2cccnc12)N1CCOCC1 read fitted potency >76.9 µM.
O=C(C1CC1)N1CCc2cc(Br)cc(S(=O)(=O)NCc3ccco3)c21 read fitted potency >76.9 µM.
C=CCn1c(N)c(C(=O)NCCC2=CCCCC2)sc1=S read fitted potency >76.9 µM.
Cc1occc1C(=O)NCCCCNC(=O)c1ccoc1C read fitted potency >76.9 µM.
O=C(CC1CCCCC1)NCC1CCCO1 (stereo not drawn) read fitted potency >76.9 µM.
CCn1nc(C)c(NC(=O)CSc2nnc(-c3ccco3)n2C)c1C read fitted potency >76.9 µM.
O=C(c1ccco1)N1CCN(C(=O)C2CCN(S(=O)(=O)c3cccc4nsnc34)CC2)CC1 read fitted potency >76.9 µM.
CCN(CC)c1nc(SCC(=O)O)nc(N(CC)CC)n1 read fitted potency >76.9 µM.

3 of the entries, repeated:

* COc1ccc(CNC(=O)C2CCNCC2)cc1 | fitted potency >76.9 µM
* Cc1ccc(-c2c(C#N)c(N)nc3c2CCCCC3)o1 | fitted potency >76.9 µM
* CCOC(=O)C1=C(C)NC(=O)NC1c1ccc2c(c1)OCCO2 (stereo not drawn) | fitted potency >76.9 µM

From PubChem BioAssay record AID360 (NCATS, 2006).